Experimental data taken from PMC10301432, “Antiplasmodial, Trypanocidal, and Genotoxicity In Vitro Assessment of New Hybrid α,α-Difluorophenylacetamide-statin Derivatives” (Pharmaceuticals, 2023).

Legend:
[1] = test system: P. falciparum parasites (W2 clone) chloroquine-resistant; test: Antiplasmodial activity, anti-HRPII assay; format: cell-based, Plasmodium falciparum; settings: LC50 (HepG2)/EC50 (P. falciparum)
From the text: P. falciparum W2 clone was maintained in continuous culture as previously described. […] Prior to testing, the ring-stage parasites were synchronized using sorbitol.
The test quantification was read at 450 nm on a spectrophotometer (SpectraMax340PC384, Molecular Devices Sunnyvale, CA, USA), and the drug activity was expressed as the half-maximal inhibitory concentration (EC50) compared to the drug-free controls using the curve-fitting software Origin 8.0 (OriginLab Corporation, Northampton, MA, USA).

in vitro [2] = format: cell-based; settings: mouse
Description: Mouse fibroblasts (L929) obtained from the American Type Culture Collection (Manassas, VA, USA) were cultured at 37 °C in RPMI-1640 medium (Gibco BRL) supplemented with 10% FBS and 2 mM glutamine, as reported in [49].
(§1) Cardiac cell cultures were incubated for 24 h at 37 °C with different concentrations of the compounds (up to 200 µM) diluted in DMEM (without phenol red). Their morphology and spontaneous contractibility were evaluated by light microscopy and then the cellular viability was determined by the PrestoBlue® assay. For this colorimetric bioassay, PrestoBlue® (Invitrogen, Waltham, MA, USA) was added to each well (using a 10:1 medium/dye), the plate was further incubated for 24 h followed by optical density (OD) measurement performed at 570 and 600 nm, as recommended by the manufacturer. A similar protocol was used to evaluate L929 cell viability after 96 h of exposure to the compounds, using 10 μL AlamarBlue® (Invitrogen).

in vitro [3] = format: cell-based; settings: mouse; remark: listed apart in the source
Description: Primary cultures of cardiac cells (CC) were obtained as reported in [50]. The cultures were sustained in Dulbecco’s modified Eagle’s medium (DMEM) supplemented with 10% horse serum, 5% fetal bovine serum (FBS), 2.5 mM CaCl2, 1 mM L-glutamine, and 2% chicken embryo extract. Cell cultures were maintained at 37 °C in an atmosphere of 5% CO2, and assays were run at least three times in triplicate.
as §1

in vitro [4] = format: cell-based; settings: human
Description: Human hepatocellular carcinoma (HepG2) and Chinese Hamster Ovary (CHO-K1) cells obtained from the American Type Culture Collection (Manassas, VA, USA) were cultured in Eagle’s medium (MEM, Gibco®, Waltham, MA, USA) containing 10% fetal bovine serum (FBS) plus 100 µg/mL streptomycin and 100 µg/mL penicillin at 37 °C in a 5% CO2 atmosphere. Logarithmic-phase cells were used in all the experiments.
Fresh HepG2 and CHO-K1 cells were seeded at a density of 1 × 10^4/well. […] Briefly, after treatment, the culture medium was replaced by 90 μL fresh culture medium and 10 μL WST-1 reagent and incubated at 37 °C and 5% CO2 for 3 h. The absorbance was then measured at 440 nm according to the kit protocol.

**Q.** Which results are given for `CC(C)c1c(C(=O)Nc2ccccc2)c(-c2ccccc2)c(-c2ccc(F)cc2)n1CC[C@@H](O)C[C@@H](O)CC(=O)O` [AVA, atorvastatin, reference compound]?
**A.** SI [1]: >98; CC50 at 96 h (in vitro [2]): 76.1 ± 2.16 µM; CC50 at 24 h (in vitro [3]): 361 ± 18.2 µM; CC50 at 24 h (in vitro [4]): > 1000 µM
